These results are taken from patent US20110067123A1, “MAO-B ELEVATION AS AN EARLY PARKINSON'S DISEASE BIOMARKER” (priority 2008, published 2011).

For this test, the system named is tyrosine hydroxylase positive (TH+) cells in mesencephalic cultures. The test can be described thus: TH+ dopaminergic cell counts and morphology in dox-induced mesencephalic cultures. Format: cell-based, mouse. The note with it: deprenyl co-treatment, FIG. 2B.

In the case of `C#CCN(C)[C@H](C)Cc1ccccc1` [deprenyl], the “morphological dopaminergic neurite alterations” value was “attenuated”.
